In publication PMC10217912:
No constants are given. Whether binding was seen depends on the method and setting. Binding seen in cells or lysates may run through a third protein. Some entries that bind do so weakly or less than the wild type. For some assays here: Sequences can lack the tags named with a protein. Values belong to the molecule of their own block, whether it stands above or below them.

Amino acid sequences for entries named in this document (tags omitted). A change or cut given only in a name is not applied to a line headed by its entry. Chains listed by the source or under a name are the forms on record and can include a tag or linker. Residues count along the entry.
UniProt P25490: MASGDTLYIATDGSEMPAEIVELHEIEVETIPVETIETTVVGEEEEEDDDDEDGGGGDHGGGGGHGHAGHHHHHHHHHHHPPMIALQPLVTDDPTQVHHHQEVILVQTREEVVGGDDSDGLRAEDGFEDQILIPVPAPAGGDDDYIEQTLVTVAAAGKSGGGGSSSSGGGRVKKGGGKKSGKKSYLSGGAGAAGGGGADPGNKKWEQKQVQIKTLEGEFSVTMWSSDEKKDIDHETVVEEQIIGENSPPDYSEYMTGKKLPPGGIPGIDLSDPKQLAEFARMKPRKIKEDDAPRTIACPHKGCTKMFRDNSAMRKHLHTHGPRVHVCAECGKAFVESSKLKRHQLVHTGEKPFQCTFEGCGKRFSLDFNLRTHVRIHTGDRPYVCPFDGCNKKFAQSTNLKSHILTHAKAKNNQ
His-GST tagged YY1/146–270: residues 146-270 of P25490
YY1/Δ146–270 (P25490, form named): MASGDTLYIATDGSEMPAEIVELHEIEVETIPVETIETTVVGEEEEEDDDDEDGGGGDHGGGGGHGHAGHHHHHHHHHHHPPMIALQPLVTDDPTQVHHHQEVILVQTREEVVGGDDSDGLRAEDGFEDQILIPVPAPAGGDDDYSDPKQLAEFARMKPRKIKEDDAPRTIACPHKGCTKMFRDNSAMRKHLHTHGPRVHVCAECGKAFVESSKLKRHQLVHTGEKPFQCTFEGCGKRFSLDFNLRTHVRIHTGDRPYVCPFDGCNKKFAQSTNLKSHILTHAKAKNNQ
UniProt Q13547: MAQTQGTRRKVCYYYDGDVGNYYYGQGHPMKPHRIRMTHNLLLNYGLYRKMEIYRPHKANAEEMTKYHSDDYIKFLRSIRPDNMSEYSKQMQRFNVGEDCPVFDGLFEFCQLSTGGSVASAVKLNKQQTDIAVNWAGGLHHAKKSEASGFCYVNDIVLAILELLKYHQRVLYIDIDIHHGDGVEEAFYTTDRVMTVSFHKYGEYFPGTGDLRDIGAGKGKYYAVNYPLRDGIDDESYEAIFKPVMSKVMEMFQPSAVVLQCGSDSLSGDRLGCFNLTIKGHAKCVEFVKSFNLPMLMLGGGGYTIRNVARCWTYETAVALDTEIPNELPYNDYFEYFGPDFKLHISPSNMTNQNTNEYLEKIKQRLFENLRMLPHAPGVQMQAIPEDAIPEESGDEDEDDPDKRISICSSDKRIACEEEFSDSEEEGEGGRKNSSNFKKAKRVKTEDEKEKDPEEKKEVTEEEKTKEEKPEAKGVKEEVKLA

Key:
[1] = biological target: T1, Flag-MOF (in HCT116) (human) (UniProt Q9H7Z6); assay: co-IP; Flag IP from HCT116 cells overexpressing a Flag-tagged protein; endogenous partner detected by Western blot; RIPA lysate buffer (1% NP-40, 150 mM NaCl, 50 mM Tris-HCl, 10% glycerol, 1 mM DTT), anti-Flag (M2) agarose overnight at 4 °C
T1 sequence: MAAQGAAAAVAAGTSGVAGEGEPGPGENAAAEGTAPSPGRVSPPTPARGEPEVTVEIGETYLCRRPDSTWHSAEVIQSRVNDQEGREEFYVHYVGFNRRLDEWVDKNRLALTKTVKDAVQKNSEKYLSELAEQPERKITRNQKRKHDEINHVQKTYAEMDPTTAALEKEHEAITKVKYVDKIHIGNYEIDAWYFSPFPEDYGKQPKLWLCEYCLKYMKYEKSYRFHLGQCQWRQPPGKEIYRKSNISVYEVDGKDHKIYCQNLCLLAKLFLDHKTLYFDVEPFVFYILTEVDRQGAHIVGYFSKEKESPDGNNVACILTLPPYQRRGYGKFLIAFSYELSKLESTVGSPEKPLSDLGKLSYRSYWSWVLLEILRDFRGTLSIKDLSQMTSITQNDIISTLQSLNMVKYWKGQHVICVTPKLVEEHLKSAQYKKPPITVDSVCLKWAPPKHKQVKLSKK

[2] = biological target: Flag-YY1 (wild-type Yin Yang 1) (human) (UniProt P25490); assay: co-IP; competition: HCT116 cells co-transfected with Flag-YY1/HDAC1, YY1/MOF or YY1/MOF/HDAC1; 48 h; proteins bound to YY1 after a Flag IP analysed by Western blot
[3] = biological target: Flag-YY1 (wild-type Yin Yang 1) (human) (UniProt P25490); assay: co-IP; HCT116 cells co-transfected with both partners, 48 h; whole-cell lysate in RIPA lysate buffer (1% NP-40, 150 mM NaCl, 50 mM Tris-HCl, 10% glycerol, 1 mM DTT); anti-Flag (M2) or anti-Myc agarose overnight at 4 °C; Western blot
[4] = biological target: T2, Myc-MOF (full length) (human) (UniProt Q9H7Z6); assay: co-IP; competitive binding: HCT116 cells transfected with Flag-YY1wt and Myc-MOF with or without YY1/146–270; 48 h; MOF bound to YY1 analysed after a Flag IP
T2 sequence: T1 sequence

HDAC1 (human) = HDAC1 (human) (UniProt Q13547); assay: co-IP; HCT116 cells co-transfected with both partners, 48 h; whole-cell lysate in RIPA lysate buffer (1% NP-40, 150 mM NaCl, 50 mM Tris-HCl, 10% glycerol, 1 mM DTT); anti-Flag (M2) or anti-Myc agarose overnight at 4 °C; Western blot
[5] = biological target: Flag-YY1 (wild-type Yin Yang 1) (human) (UniProt P25490); assay: as above; remark: listed apart in the source
YY1/Δ146–270 (human) = YY1/Δ146–270 (human) (UniProt P25490); assay: as above
YY1K183R mutant (human) = YY1K183R mutant (human) (UniProt P25490); assay: as above
[6] = biological target: Flag-YY1 (wild-type Yin Yang 1) (human) (UniProt P25490); assay: co-IP; competitive binding: HCT116 cells transfected with Flag-YY1wt and Myc-MOF with or without YY1/146–270; 48 h; MOF bound to YY1 analysed after a Flag IP
[7] = biological target: His-GST tagged YY1/146–270 (human) (UniProt P25490); assay: pull-down; GST-pulldown: purified His-GST tagged YY1 deletion mutants mixed with whole cell lysate of Flag-MOF overexpressing 293T cells; only the target purified

binding [1]: binds
Molecule: endogenous YY1 (from UniProt P25490 1-414)

binding [2]: binds
binding [3]: binds
Molecule: HDAC1 (from UniProt Q13547 1-482) (enzyme)

binding [4]: binds
Molecule: YY1/146–270 (expressed in HCT116) (from UniProt P25490 146-270) (domain or fragment)

binding (HDAC1 (human)): binds
Molecule: Flag-YY1 (wild-type Yin Yang 1) (from UniProt P25490 1-414)

binding [5]: binds
B1: MSL2 (protein, UniProt Q9HCI7-1 1-577)
chain: MNPVNATALYISASRLVLNYDPGDPKAFTEINRLLPYFRQSLSCCVCGHLLQDPIAPTNSTCQHYVCKTCKGKKMMMKPSCSWCKDYEQFEENKQLSILVNCYKKLCEYITQTTLARDIIEAVDCSSDILALLNDGSLFCEETEKPSDSSFTLCLTHSPLPSTSEPTTDPQASLSPMSESTLSIAIGSSVINGLPTYNGLSIDRFGINIPSPEHSNTIDVCNTVDIKTEDLSDSLPPVCDTVATDLCSTGIDICSFSEDIKPGDSLLLSVEEVLRSLETVSNTEVCCPNLQPNLEATVSNGPFLQLSSQSLSHNVFMSTSPALHGLSCTAATPKIAKLNRKRSRSESDSEKVQPLPISTIIRGPTLGASAPVTVKRESKISLQPIATVPNGGTTPKISKTVLLSTKSMKKSHEHGSKKSHSKTKPGILKKDKAVKEKIPSHHFMPGSPTKTVYKKPQEKKGCKCGRATQNPSVLTCRGQRCPCYSNRKACLDCICRGCQNSYMANGEKKLEAFAVPEKALEQTRLTLGINVTSIAVRNASTSTSVINVTGSPVTTFLAASTHDDKSLDEAIDMRFDC

binding [5]: binds
B2: Myc-tagged MOF C-terminal (158–459 aa) (domain or fragment, UniProt Q9H7Z6-1 158-458)
chain: EMDPTTAALEKEHEAITKVKYVDKIHIGNYEIDAWYFSPFPEDYGKQPKLWLCEYCLKYMKYEKSYRFHLGQCQWRQPPGKEIYRKSNISVYEVDGKDHKIYCQNLCLLAKLFLDHKTLYFDVEPFVFYILTEVDRQGAHIVGYFSKEKESPDGNNVACILTLPPYQRRGYGKFLIAFSYELSKLESTVGSPEKPLSDLGKLSYRSYWSWVLLEILRDFRGTLSIKDLSQMTSITQNDIISTLQSLNMVKYWKGQHVICVTPKLVEEHLKSAQYKKPPITVDSVCLKWAPPKHKQVKLSKK

binding [5]: binds
binding (YY1/Δ146–270 (human)): binds
binding (YY1K183R mutant (human)): binds
binding [2]: binds
binding [6]: binds
B3: Myc-MOF (full length) (protein, UniProt Q9H7Z6-1 1-458)
chain: T1 sequence

binding [5]: binds
B4: untagged MOF (protein, UniProt Q9H7Z6-1 1-458)
chain: T1 sequence

binding [7]: binds
B5: Flag-MOF (in 293T) (protein, UniProt Q9H7Z6-1 1-458)
chain: T1 sequence
